In experiment [1] the target is T1, EXO70B1-pGBKT7 (Arabidopsis thaliana) (UniProt Q9FGH9).
T1 sequence: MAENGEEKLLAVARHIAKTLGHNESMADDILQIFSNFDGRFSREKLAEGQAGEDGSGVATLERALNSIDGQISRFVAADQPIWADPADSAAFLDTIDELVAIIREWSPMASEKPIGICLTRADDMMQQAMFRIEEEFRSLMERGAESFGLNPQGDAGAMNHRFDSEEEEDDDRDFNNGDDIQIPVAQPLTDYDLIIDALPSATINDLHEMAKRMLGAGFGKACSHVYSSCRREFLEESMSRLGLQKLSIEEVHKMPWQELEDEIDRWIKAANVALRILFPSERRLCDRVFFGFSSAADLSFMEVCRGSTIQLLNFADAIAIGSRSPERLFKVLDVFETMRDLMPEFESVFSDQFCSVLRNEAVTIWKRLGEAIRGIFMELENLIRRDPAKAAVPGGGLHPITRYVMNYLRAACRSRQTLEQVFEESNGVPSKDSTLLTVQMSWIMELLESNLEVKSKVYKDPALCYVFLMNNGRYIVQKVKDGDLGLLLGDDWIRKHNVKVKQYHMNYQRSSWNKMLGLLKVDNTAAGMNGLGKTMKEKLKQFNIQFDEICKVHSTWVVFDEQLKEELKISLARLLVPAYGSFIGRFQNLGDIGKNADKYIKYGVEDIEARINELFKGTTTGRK
In words: two-hybrid; … GAL4 Two-Hybrid System 3; EXO70B1-pGBKT7 as bait, preys in pGADT7; S. cerevisiae AH109; growth on SD/-Ade/-His/-Leu/-Trp at 28°C.

Protein sequences, listed by entry. Tags and fused reporters are not part of them. Lines headed by an entry give the natural chain unless they say otherwise; changes in a name come on top.
UniProt Q4PT31: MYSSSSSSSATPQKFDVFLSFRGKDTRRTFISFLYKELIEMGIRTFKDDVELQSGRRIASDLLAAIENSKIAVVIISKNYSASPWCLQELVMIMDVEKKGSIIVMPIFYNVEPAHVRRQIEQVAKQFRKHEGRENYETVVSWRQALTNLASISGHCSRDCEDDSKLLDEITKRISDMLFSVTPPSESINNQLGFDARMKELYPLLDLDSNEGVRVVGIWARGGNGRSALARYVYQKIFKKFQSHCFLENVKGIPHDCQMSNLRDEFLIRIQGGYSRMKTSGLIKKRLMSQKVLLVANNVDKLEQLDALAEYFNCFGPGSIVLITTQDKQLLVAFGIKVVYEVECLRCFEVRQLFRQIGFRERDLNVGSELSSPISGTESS

Experiment [2] addresses pEG202:TN2 (Arabidopsis thaliana) (UniProt Q4PT31). In words: two-hybrid; LexA system; Gateway-modified pEG202 (baits, EGY48) and pJG4-5 (prey, RFY206 with LacZ reporter pSH18-34); mated diploids spotted on SD-HUW with X-gal.
Experiment [3] deals with TN2-Myc (Arabidopsis thaliana). In words: co-IP; transient co-expression in N. benthamiana leaves; total protein in NB1 buffer; immunoprecipitation with anti-Myc or anti-HA antibody and protein G agarose at 4 °C; washed 4 times with PBS; immunoblot. (A western blot detects proteins with antibodies after separation by electrophoresis.)
Experiment [4] has as its target TN2-YFP^N (Arabidopsis thaliana). In words: split reporter; BiFC with YFP^N and YFP^C fusions co-infiltrated by Agrobacterium GV3101 into N. benthamiana leaves; YFP fluorescence by confocal microscopy after 48 hr.

No constants are given. Whether binding was seen depends on the method and setting. For some assays here: A result given as binding can be weak or reduced; the word gives no strength. For some assays here: Binding seen in cells or lysates may run through a third protein. For some assays here: Where a sequence is shown, tags or fusion partners need not be part of it.

In the case of “PEN1Δ: PEN1 without transmembrane domain (Arabidopsis thaliana) (domain or fragment)”, the binding entry in experiment [1] is listed as “no binding”.

B1: pJG4-5:EXO70B1 (protein, UniProt Q9FGH9 1-624)
chain: MAENGEEKLLAVARHIAKTLGHNESMADDILQIFSNFDGRFSREKLAEGQAGEDGSGVATLERALNSIDGQISRFVAADQPIWADPADSAAFLDTIDELVAIIREWSPMASEKPIGICLTRADDMMQQAMFRIEEEFRSLMERGAESFGLNPQGDAGAMNHRFDSEEEEDDDRDFNNGDDIQIPVAQPLTDYDLIIDALPSATINDLHEMAKRMLGAGFGKACSHVYSSCRREFLEESMSRLGLQKLSIEEVHKMPWQELEDEIDRWIKAANVALRILFPSERRLCDRVFFGFSSAADLSFMEVCRGSTIQLLNFADAIAIGSRSPERLFKVLDVFETMRDLMPEFESVFSDQFCSVLRNEAVTIWKRLGEAIRGIFMELENLIRRDPAKAAVPGGGLHPITRYVMNYLRAACRSRQTLEQVFEESNGVPSKDSTLLTVQMSWIMELLESNLEVKSKVYKDPALCYVFLMNNGRYIVQKVKDGDLGLLLGDDWIRKHNVKVKQYHMNYQRSSWNKMLGLLKVDNTAAGMNGLGKTMKEKLKQFNIQFDEICKVHSTWVVFDEQLKEELKISLARLLVPAYGSFIGRFQNLGDIGKNADKYIKYGVEDIEARINELFKGTTTGRK
Take B1: in experiment [2], the binding result was “binds”.

B2: EXO70B1-FLAG (protein, UniProt Q9FGH9 1-624)
chain: MAENGEEKLLAVARHIAKTLGHNESMADDILQIFSNFDGRFSREKLAEGQAGEDGSGVATLERALNSIDGQISRFVAADQPIWADPADSAAFLDTIDELVAIIREWSPMASEKPIGICLTRADDMMQQAMFRIEEEFRSLMERGAESFGLNPQGDAGAMNHRFDSEEEEDDDRDFNNGDDIQIPVAQPLTDYDLIIDALPSATINDLHEMAKRMLGAGFGKACSHVYSSCRREFLEESMSRLGLQKLSIEEVHKMPWQELEDEIDRWIKAANVALRILFPSERRLCDRVFFGFSSAADLSFMEVCRGSTIQLLNFADAIAIGSRSPERLFKVLDVFETMRDLMPEFESVFSDQFCSVLRNEAVTIWKRLGEAIRGIFMELENLIRRDPAKAAVPGGGLHPITRYVMNYLRAACRSRQTLEQVFEESNGVPSKDSTLLTVQMSWIMELLESNLEVKSKVYKDPALCYVFLMNNGRYIVQKVKDGDLGLLLGDDWIRKHNVKVKQYHMNYQRSSWNKMLGLLKVDNTAAGMNGLGKTMKEKLKQFNIQFDEICKVHSTWVVFDEQLKEELKISLARLLVPAYGSFIGRFQNLGDIGKNADKYIKYGVEDIEARINELFKGTTTGRK
Consider B2, for which the binding result in experiment [3] is listed as “binds”.

B3: EXO70B1-YFP^C (protein, UniProt Q9FGH9 1-624)
chain: MAENGEEKLLAVARHIAKTLGHNESMADDILQIFSNFDGRFSREKLAEGQAGEDGSGVATLERALNSIDGQISRFVAADQPIWADPADSAAFLDTIDELVAIIREWSPMASEKPIGICLTRADDMMQQAMFRIEEEFRSLMERGAESFGLNPQGDAGAMNHRFDSEEEEDDDRDFNNGDDIQIPVAQPLTDYDLIIDALPSATINDLHEMAKRMLGAGFGKACSHVYSSCRREFLEESMSRLGLQKLSIEEVHKMPWQELEDEIDRWIKAANVALRILFPSERRLCDRVFFGFSSAADLSFMEVCRGSTIQLLNFADAIAIGSRSPERLFKVLDVFETMRDLMPEFESVFSDQFCSVLRNEAVTIWKRLGEAIRGIFMELENLIRRDPAKAAVPGGGLHPITRYVMNYLRAACRSRQTLEQVFEESNGVPSKDSTLLTVQMSWIMELLESNLEVKSKVYKDPALCYVFLMNNGRYIVQKVKDGDLGLLLGDDWIRKHNVKVKQYHMNYQRSSWNKMLGLLKVDNTAAGMNGLGKTMKEKLKQFNIQFDEICKVHSTWVVFDEQLKEELKISLARLLVPAYGSFIGRFQNLGDIGKNADKYIKYGVEDIEARINELFKGTTTGRK
On to B3, for which the binding entry in experiment [4] was “binds”.

B4: SNAP33-YFP^C (protein, UniProt Q9S7P9 1-300)
chain: MFGLRKSPANLPKHNSVDLKSSKPNPFDSDDESDNKHTLNPSKRTTSEPSLADMTNPFGGERVQKGDSSSSKQSLFSNSKYQYKNNFRDSGGIENQSVQELEGYAVYKAEETTKSVQGCLKVAEDIRSDATRTLVMLHDQGEQITRTHHKAVEIDHDLSRGEKLLGSLGGMFSKTWKPKKTRPINGPVVTRDDSPTRRVNHLEKREKLGLNSAPRGQSRTREPLPESADAYQRVEMEKAKQDDGLSDLSDILGELKNMAVDMGSEIEKQNKGLDHLHDDVDELNFRVQQSNQRGRRLLGK
B4: the binding entry in experiment [4] was “no binding”.

Source of the values: publication PMC4305288.
